## Library screen at single concentrations

Chains of the proteins cited; added tags and fusions are not shown.
UniProt I6X8D2, whole entry: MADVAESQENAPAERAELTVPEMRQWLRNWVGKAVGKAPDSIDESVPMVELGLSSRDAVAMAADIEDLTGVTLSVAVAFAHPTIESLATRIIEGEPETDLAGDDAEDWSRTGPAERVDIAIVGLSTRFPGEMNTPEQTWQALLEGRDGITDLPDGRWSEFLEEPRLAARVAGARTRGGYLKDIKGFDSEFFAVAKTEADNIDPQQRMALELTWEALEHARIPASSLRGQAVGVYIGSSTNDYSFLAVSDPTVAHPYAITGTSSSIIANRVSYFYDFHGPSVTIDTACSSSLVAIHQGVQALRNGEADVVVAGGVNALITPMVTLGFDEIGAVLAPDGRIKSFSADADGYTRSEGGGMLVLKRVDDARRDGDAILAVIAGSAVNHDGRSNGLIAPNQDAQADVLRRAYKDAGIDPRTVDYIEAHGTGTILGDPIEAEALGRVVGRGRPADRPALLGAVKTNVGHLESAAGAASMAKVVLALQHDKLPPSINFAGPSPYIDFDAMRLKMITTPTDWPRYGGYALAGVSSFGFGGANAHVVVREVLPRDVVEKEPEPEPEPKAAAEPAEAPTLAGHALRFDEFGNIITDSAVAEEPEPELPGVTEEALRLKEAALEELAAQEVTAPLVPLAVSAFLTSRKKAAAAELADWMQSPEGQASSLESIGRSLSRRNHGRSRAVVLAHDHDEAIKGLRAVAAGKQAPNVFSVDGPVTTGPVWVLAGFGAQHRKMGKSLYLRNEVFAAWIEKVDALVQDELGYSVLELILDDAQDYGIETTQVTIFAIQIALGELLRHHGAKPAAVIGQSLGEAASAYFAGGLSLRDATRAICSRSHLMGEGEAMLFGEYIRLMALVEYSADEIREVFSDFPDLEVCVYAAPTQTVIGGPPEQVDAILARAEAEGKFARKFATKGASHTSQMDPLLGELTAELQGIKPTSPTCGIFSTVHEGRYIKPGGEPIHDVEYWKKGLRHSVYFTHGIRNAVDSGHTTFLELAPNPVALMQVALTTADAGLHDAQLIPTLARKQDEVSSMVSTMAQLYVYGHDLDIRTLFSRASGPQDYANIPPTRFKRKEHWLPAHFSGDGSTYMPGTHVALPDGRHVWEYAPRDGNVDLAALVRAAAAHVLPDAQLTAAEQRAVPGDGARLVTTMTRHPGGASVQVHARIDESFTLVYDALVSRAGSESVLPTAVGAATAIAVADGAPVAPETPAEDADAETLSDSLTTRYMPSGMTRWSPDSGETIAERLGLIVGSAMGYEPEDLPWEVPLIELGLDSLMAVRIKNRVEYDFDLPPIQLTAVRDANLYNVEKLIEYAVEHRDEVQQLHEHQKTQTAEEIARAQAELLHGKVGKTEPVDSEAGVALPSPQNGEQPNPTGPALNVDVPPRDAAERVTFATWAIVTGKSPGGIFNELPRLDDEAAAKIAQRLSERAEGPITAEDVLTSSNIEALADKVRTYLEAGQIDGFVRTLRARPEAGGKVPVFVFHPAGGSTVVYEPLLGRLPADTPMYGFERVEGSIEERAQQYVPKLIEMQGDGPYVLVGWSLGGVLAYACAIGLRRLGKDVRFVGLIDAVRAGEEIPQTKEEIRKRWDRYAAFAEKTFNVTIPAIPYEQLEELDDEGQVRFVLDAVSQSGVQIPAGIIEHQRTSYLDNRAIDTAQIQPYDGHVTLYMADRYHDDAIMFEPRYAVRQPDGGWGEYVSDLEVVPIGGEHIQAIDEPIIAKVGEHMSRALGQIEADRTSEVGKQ

Results are given as percent effect. How 0% and 100% were set is not recorded. Most values in the screen are low, and negative values occur. The compounds are a random part of those screened.

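Polyketide synthase Pks13, Mycobacterium tuberculosis (UniProt I6X8D2). Enzyme assay of the thioesterase domain of polyketide synthase 13; the read-out is not stated. Tested at 30 µM. Higher reads as stronger inhibition (inferred from which compounds were picked for retests). Of about 67,000 compounds tested this way, about 300 (0.46%) reached 50% or more in at least one test.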

structure	effect
Cc1nc(CN2CCN(C(=O)c3sccc3C3CC3)CC2)cs1	-12.84
Cc1ccccc1CC(=O)N1CCCn2cncc2C1	-7.7
O=C(CN1CCOCC1)Nc1cc(C(F)(F)F)ccc1-n1cccc1	0.3206
c1ccc(Cn2ccnc2CNC2CCCOc3ccccc32)cc1 (stereo unspecified)	-29.34
CC1CCCCN1CCNC(=O)NCc1ccc(C#N)cc1F (stereo unspecified)	-12.5
Cc1ccc(CN2CC[C@H]3OCC[C@@]3(COCC(=O)N(C)C)C2)s1	-32.96
CC(C)(C)c1nnc(CN2CCCC2Cn2cncn2)o1 (stereo unspecified)	-22.29
Cc1nc(C#N)c(N2CCC(c3nc(-c4ccccc4)no3)CC2)o1	15.25
Cc1cccc(N2CCC3(CCN(Cc4ccccn4)CC3)CC2)n1	-23.97
CN(CCCO)Cc1cc(Cl)ccc1OCC(O)CN1CCCCCC1 (stereo unspecified)	-12.79
CN1CCCn2c(nc(CNC(=O)c3ccsc3)cc2=O)C1	-11.05
COc1ccc2[nH]cc(C(=O)N3C[C@@H](O)[C@H](NS(C)(=O)=O)C3)c2c1	2.539
Cc1nn(C)c(N(C)C)c1CNCc1ccnc(N2CCCCC2)c1	-14.33
CCC(=O)N1CCC(Cc2cnc(Nc3cnccn3)cn2)CC1	43.18
O=S(=O)(c1cccc(F)c1)N1CCCCC1c1ccn[nH]1 (stereo unspecified)	6.317
Cc1cc(-c2cc(N)c(=O)n(CC(=O)N3CCCC(C)C3)n2)c(C)o1 (stereo unspecified)	17.34
CCNC(=O)c1cc2n(n1)CCCO2	-12.77
Cc1cc(C)n(CC2CN(Cc3nnc(C)o3)CCO2)n1 (stereo unspecified)	-18.05
Cc1nccn1C1CCCN(C(=O)c2ccc(N(C)C)nn2)C1 (stereo unspecified)	-1.49
CN(C)c1cc(CNC(=O)c2ccc(=O)[nH]n2)ccn1	-13.66
CCOCC1CN(C(=O)C2CCOCC2)Cc2cnn(C)c21 (stereo unspecified)	-13.89
CC(C)c1nc(C2CCCN(C(=O)c3ccc4c(c3)OCO4)C2)no1 (stereo unspecified)	-31.19
O=S(=O)(NCc1cccnc1OC1CCCC1)N1CCCCC1	-14.25
CNC(=O)[C@@]12CCO[C@@H]1CCN(S(=O)(=O)c1cc(C)cc(C)c1)C2	-6.088
CCn1cc(C(=O)NCc2cccnc2N(C)Cc2ccccc2)cn1	-0.496
CN(C)C(=O)NC[C@H]1OC[C@@H]2CCN(Cc3ccoc3)C[C@@H]21	16.91
COc1cccc2c1OCC(C(=O)N1CCC(NS(C)(=O)=O)CC1)C2 (stereo unspecified)	3.671
CCOC(=O)C(C)NC(=O)CCSc1ccc(F)cc1 (stereo unspecified)	-12.91
CCOc1ccc(C(=O)N2C[C@H]3CC[C@@H]2CN(C)C3)cc1OCC	4.336
O=C(O)c1ccnc(SCc2ccccc2)c1	-13.17
CCc1cnc(N2CCc3cc(C(=O)NC)c(N(C)C)nc3CC2)nc1	2.133
CCOC1COC2(CCN(Cc3ccc(C)c(C)c3)CC2)C1 (stereo unspecified)	-30.44
Cc1ccc2c(c1)CCC21CCN(C(=O)CO)CC1	-20.14
COc1cc(C(=O)N2CCC(c3n[nH]c(C4CC4)n3)CC2)ccc1C	-11.82
Cc1cc(C)c2c(N(C)CC3CCOC3)ncnc2n1 (stereo unspecified)	8.315
CCOCCNC(=O)C1CCC(=O)N(CCc2ccc(Cl)cc2)C1 (stereo unspecified)	6.838
CCOC(C)C(=O)Nc1ccnn1-c1ccccc1C (stereo unspecified)	-9.605
CC(NCc1ccccn1)c1ccc(N2CCN(C)CC2)c(F)c1 (stereo unspecified)	-2.094
CCC(C)(C)NC(=O)Cn1nc(C)nc1-c1cccc(C)c1	-19.69
COCCCOc1ccc(C(=O)N(C)CCC(C)C)cn1	-9.982
NCCC(Cc1ccccc1)c1ccco1 (stereo unspecified)	-7.029
CN(C)CC(C)(O)CNC(=O)Nc1sc2ccccc2c1Cl (stereo unspecified)	-7.6
CC(C)(C)CC(=O)N1CC[C@H]2CC(=O)N(CCc3c[nH]cn3)CC[C@H]2C1	4.099
O=C1NCCCCC1NC(=O)C1(c2cccc(Cl)c2)CC1 (stereo unspecified)	6.266
O=C(NC1CCCCC1)N1CCc2onc(COc3cccnc3)c2C1	-16.52
COc1cc(CNC(C)c2ccc(F)c(F)c2)cc2c1OCCO2 (stereo unspecified)	-9.595
CC(C)Cc1cc(CC2(NCc3ccccc3Cl)COC2)no1	17.05
Cc1nc(CNc2cccc(Cl)c2Cl)cs1	-14.79
CCS(=O)(=O)N1CCOCC2(CCN(c3ccccn3)C2)C1 (stereo unspecified)	-5.071
Cc1cc(S(=O)(=O)NCC(O)c2sccc2C)ccc1F (stereo unspecified)	-27.92
Cc1cnc(N2CC[C@@H]3OC(COCC(=O)N(C)C)CC[C@@H]32)nc1 (stereo partly specified)	13.9
CCN1C(=O)CC(c2cnn(C)c2)C12CCN(C(=O)c1ccc[nH]1)CC2 (stereo unspecified)	2.526
Cc1ccc(C(=O)N(C)CC(=O)NCC(F)(F)F)cn1	-9.783
O=C(NCCCn1cccn1)c1csc2c1CCCC2	-0.4892
COc1cc2c(cc1CN1C[C@@H](CN3CCOCC3)[C@@H](CO)C1)CCC2	-9.883
Cc1cc(C)nc(C2CCN(C(=O)c3cncnc3C)C2)n1 (stereo unspecified)	-6.282
COc1ccc(Br)cc1CCC(=O)N1CCCC1	-14.41
COCCNc1nnc(-c2ccc(C)nc2)s1	14.18
Cc1cc(C)n(CC(=O)N(CC2CN(C)CCO2)c2nccs2)n1 (stereo unspecified)	0.1434
O=C1CC(c2ccccc2F)c2c(n3ccsc3nc2=O)N1 (stereo unspecified)	-30.27
Cc1ccccc1CN1CCCN(S(=O)(=O)N(C)C2CCCCC2)CC1	-10.35
CC[C@@H]1N(Cc2ccncc2)CCC[C@]12CCC(=O)N2CCOC	-6.016
CCc1nc(C)c(CN2CCOC(Cc3cccc4ccccc34)C2)[nH]1 (stereo unspecified)	1.741
COc1cccc(CCC(=O)N2CCCC(c3nncn3C)C2)c1 (stereo unspecified)	-7.774
O=C(c1cccnc1-n1cncn1)N1CCN(CC2CC2)CC1	-9.88
Cc1ccccc1OCCCC(=O)NCC1CN(C)CCO1 (stereo unspecified)	-8.929
CCOCC1CN(S(=O)(=O)Cc2ccccc2)Cc2nccn2C1 (stereo unspecified)	-15.94
CS(=O)(=O)NC[C@@H]1OC[C@H]2CN(C(=O)c3ccccn3)CC[C@H]21	11.05
Cc1ccoc1C(=O)N1CCOCC2(CCN(c3ncccn3)C2)C1 (stereo unspecified)	-4.357
CCC(CN1CCCC1)n1cncc1-c1cnn(-c2ccc(F)cc2)c1 (stereo unspecified)	6.021
Fc1ccc(CN2CCCC2Cn2cncn2)c2ncccc12 (stereo unspecified)	-16.29
CCc1nc(C2CCCN(C(=O)c3ccc4[nH]cnc4c3)C2)no1 (stereo unspecified)	-18.43
CCN(C)S(=O)(=O)N(CC)Cc1cccc(-c2ccncc2)c1	-73.11
CS(=O)(=O)N[C@@H]1CN(C(=O)c2cnccn2)[C@@H]2CCCO[C@@H]21	-12.96
CC(NC(=O)N1CCSC(C)(C)C1)c1noc(-c2ccccc2)n1 (stereo unspecified)	-23.99
Cc1cc2cccc(C(=O)N3CC[C@@H](N)[C@H](O)C3)c2o1	-18.26
O=C(NC1CC1)N1CCc2ncc(CN3CCOCC3)n2CC1	-6.801
Cc1cccc(C)c1-n1nnnc1C1(NCc2ccco2)CCCC1	-15.37
Cc1cc(NCCCc2c(C)noc2C)nc(N)n1	0.1351
CCC(NC(=O)c1ccc(OC)nn1)c1nc(C(F)(F)F)cs1 (stereo unspecified)	-15.04
Cc1cccc(C(=O)N2C[C@@H](OCc3cccnc3)[C@H]3OCCC[C@@H]32)n1	-4.539
O=C(NCC1COC2(CCOCC2)O1)c1csc(-c2cccc(Cl)c2)n1 (stereo unspecified)	39.07
COc1cccc(OCCNCc2ccccc2)c1	-3.207
Cc1nccnc1C1CCN(C(=O)C(C)C)CC1	2.168
Cc1cnn(CCNCc2nnc(Cc3ccccc3)o2)c1	-2.298
COC(=O)c1cccc(S(=O)(=O)Nc2ccc(F)c(C(N)=O)c2)c1	-16.67
COc1cccc2c1OCC(CNC(=O)CCn1cnnn1)C2 (stereo unspecified)	7.098
Cc1ccc(C(=O)N2CCC3(CC(N(C)c4ccncn4)C3)C2)cn1 (stereo unspecified)	1.631
Cc1nc2n(n1)CC(NCc1ccnc(-c3ccccc3)n1)CC2 (stereo unspecified)	-7.566
Cc1ccc(-n2nnc(C(=O)NCCS(N)(=O)=O)c2C2CC2)cc1	-9.779
Cc1cccc(C)c1OCC(=O)N1CCOCC1c1ncon1 (stereo unspecified)	0.159
CC(C)c1nc(CN(C)C(=O)CCS(=O)(=O)c2ccccc2)no1	-41.23

For reference, 9 entries once more:

With COCCNc1nnc(-c2ccc(C)nc2)s1 the screen gave 14.18%.
With CCC(=O)N1CCC(Cc2cnc(Nc3cnccn3)cn2)CC1 the screen gave 43.18%.
With CN(C)CC(C)(O)CNC(=O)Nc1sc2ccccc2c1Cl (stereo unspecified) the screen gave -7.6%.
With CCS(=O)(=O)N1CCOCC2(CCN(c3ccccn3)C2)C1 (stereo unspecified) the screen gave -5.071%.
With O=S(=O)(NCc1cccnc1OC1CCCC1)N1CCCCC1 the screen gave -14.25%.
With COc1cc(CNC(C)c2ccc(F)c(F)c2)cc2c1OCCO2 (stereo unspecified) the screen gave -9.595%.
With NCCC(Cc1ccccc1)c1ccco1 (stereo unspecified) the screen gave -7.029%.
With CCOC1COC2(CCN(Cc3ccc(C)c(C)c3)CC2)C1 (stereo unspecified) the screen gave -30.44%.
With Cc1ccc(-n2nnc(C(=O)NCCS(N)(=O)=O)c2C2CC2)cc1 the screen gave -9.779%.

The values are deposited in ChEMBL (CHEMBL3988442, “University of Dundee, Small-Polar-MMV Screening Library” (2021)).